According to PMC10112892:
Results are given in words; binding and its absence hold for the method and conditions named. Binding seen in cells or lysates may run through a third protein. Some binding calls cover weakened binding; strength is not graded here. Tags and fused reporters may be left off the sequences shown.

Amino acid sequences for entries named in this document (tags omitted).
UniProt P22061: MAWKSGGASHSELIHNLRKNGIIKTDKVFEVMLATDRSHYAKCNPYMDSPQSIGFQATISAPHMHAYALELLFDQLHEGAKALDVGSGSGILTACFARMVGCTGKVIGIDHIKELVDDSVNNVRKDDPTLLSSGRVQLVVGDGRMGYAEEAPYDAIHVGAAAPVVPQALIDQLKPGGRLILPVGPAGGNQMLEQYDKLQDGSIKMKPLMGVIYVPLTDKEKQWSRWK

Molecular target: T1, Flag-TRAF2 (UniProt Q12933)
T1 sequence: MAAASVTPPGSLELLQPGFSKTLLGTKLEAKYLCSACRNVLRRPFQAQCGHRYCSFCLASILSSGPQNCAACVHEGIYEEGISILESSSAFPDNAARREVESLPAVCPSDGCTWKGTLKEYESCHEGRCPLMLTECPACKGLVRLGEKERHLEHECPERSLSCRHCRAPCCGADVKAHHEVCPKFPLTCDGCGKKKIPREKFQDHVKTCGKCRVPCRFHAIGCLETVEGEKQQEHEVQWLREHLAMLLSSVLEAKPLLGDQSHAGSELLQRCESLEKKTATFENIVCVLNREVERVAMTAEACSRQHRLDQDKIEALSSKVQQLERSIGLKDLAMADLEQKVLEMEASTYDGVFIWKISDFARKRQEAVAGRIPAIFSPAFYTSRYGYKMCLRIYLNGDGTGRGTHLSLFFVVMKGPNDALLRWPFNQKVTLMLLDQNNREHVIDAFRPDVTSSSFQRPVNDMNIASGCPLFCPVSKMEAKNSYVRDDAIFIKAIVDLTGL
Experiment: co-IP; HEK-293T cells co-transfected with tagged constructs, lysed 48 hr later in IP buffer (20 mM Tris pH 8.0, 137 mM NaCl, 2 mM EDTA, 1% NP-40, 10% glycerol); Anti-FLAG M2 magnetic beads at 4°C overnight; western blot; in Figure 4A and 4G with or without co-expressed Myc-PIMT

binding: binds weakly
Substance: Myc-tagged PIMT (protein L-isoaspartyl O-methyltransferase), wild type (from UniProt P22061 1-227) (enzyme)
